Experimental data from article PMC7447769.
Results are given in words; binding and its absence hold for the method and conditions named. In cells and extracts the contact can be indirect. Binding can be weak; no strength is given. Sequences can lack the tags named with a protein.

Biological target: T1, green fluorescent protein (GFP)/Smad Interacting Protein 1 (SIP1) (UniProt O60315)
T1 sequence: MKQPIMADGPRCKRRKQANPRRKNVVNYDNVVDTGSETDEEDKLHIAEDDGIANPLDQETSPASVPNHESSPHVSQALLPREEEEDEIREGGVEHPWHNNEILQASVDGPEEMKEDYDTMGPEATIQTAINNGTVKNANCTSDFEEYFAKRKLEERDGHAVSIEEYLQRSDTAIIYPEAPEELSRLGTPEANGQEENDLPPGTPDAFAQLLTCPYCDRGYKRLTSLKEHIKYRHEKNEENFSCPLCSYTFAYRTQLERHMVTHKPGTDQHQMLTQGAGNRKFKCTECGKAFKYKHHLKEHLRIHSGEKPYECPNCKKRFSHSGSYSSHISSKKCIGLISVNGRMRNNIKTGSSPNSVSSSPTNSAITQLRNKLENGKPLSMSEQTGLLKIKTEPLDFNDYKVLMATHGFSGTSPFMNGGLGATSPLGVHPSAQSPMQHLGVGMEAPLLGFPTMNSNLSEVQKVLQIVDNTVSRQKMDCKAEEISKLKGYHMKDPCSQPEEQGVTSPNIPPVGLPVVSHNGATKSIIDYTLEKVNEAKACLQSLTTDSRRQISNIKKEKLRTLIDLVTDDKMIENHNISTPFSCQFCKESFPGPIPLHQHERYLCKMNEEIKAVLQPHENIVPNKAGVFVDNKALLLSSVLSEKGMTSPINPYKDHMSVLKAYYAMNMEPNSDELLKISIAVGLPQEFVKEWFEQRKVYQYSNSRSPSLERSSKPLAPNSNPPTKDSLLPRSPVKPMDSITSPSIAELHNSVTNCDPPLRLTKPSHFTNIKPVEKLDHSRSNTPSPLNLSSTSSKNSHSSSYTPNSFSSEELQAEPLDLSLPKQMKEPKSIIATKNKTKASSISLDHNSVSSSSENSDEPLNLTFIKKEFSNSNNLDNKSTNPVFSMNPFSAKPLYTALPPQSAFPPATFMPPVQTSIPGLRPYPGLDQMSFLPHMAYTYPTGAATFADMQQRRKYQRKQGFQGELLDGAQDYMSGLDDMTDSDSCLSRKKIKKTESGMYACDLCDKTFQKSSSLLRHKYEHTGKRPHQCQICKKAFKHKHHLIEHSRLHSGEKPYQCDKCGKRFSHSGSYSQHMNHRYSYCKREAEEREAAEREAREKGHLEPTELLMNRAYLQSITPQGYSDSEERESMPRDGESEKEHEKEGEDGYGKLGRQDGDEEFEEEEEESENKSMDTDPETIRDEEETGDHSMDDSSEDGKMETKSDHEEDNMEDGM
Test: co-IP; 293T cells co-transfected with Rluc/TCF7L2E2 (or Rluc alone) and GFP/SIP1 (or GFP alone); immunoprecipitation with anti-SIP1 or IgG, Renilla luciferase activity on 90% of the immunocomplexes, normalised to input, IgG subtracted

binding: binds
Substance: Rluc/TCF7L2E2 (Renilla luciferase in fusion with TCF7L2E2) (mouse)
